Data as given in PMC9691370.
These are yes or no findings as the source states them, for the method shown. Binding seen in cells or lysates may run through a third protein. Some results given as binding are weak or reduced against the parent protein; the word gives no strength. For part of these data: Where a sequence is shown, tags or fusion partners need not be part of it. Blank lines part the entries; values can stand above or below the molecule they belong to.

The chains behind the UniProt entries cited, without tags or fusion partners. Residues count along the entry.
UniProt P09055, residues 21-798: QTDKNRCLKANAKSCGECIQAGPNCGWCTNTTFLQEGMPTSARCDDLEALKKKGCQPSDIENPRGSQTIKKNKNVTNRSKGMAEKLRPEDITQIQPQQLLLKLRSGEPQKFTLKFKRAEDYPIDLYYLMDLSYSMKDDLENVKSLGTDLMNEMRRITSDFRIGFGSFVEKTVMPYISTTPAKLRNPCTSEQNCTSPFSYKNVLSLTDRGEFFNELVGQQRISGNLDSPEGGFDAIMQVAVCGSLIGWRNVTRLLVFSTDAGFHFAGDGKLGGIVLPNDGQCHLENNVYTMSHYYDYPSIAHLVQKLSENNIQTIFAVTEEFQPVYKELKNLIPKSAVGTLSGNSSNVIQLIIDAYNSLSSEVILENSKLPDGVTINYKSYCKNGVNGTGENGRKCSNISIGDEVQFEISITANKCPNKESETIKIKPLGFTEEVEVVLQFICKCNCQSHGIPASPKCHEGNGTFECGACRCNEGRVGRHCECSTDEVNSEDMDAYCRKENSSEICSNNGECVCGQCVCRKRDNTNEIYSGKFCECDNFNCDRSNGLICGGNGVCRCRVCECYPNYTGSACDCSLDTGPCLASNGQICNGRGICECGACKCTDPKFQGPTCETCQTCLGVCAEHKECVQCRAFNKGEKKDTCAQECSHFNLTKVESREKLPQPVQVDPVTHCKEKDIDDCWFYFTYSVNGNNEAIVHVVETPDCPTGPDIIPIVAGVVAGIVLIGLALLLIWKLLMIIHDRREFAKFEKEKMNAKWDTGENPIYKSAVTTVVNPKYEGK
UniProt P49134, residues 21-799: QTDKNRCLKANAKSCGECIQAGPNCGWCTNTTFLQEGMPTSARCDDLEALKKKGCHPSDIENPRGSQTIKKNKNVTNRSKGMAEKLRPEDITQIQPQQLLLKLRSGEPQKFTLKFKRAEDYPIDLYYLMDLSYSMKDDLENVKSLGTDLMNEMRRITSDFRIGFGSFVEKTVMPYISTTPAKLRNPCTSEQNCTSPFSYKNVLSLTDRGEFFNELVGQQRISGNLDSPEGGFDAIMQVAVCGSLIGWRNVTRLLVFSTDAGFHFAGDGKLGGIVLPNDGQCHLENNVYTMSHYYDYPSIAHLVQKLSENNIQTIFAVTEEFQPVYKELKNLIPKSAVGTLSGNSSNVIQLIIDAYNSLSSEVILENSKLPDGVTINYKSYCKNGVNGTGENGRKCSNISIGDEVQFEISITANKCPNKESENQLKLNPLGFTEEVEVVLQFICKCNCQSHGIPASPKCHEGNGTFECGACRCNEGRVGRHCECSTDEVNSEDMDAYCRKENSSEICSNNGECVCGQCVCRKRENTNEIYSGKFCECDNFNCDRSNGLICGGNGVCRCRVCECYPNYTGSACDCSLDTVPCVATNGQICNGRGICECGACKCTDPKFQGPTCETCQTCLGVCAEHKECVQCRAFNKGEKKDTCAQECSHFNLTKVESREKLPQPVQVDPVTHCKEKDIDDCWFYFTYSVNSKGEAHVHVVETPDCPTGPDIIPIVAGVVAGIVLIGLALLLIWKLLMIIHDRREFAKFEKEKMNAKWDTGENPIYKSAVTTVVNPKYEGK

Key:
[1] = target: T1, Ninj2 in rat Schwann cells (UniProt Q9JHE8); assay: co-IP; rat SCs, lysed, antibodies overnight at 4 °C, Protein A Magnetic Beads 2 h at 4 °C
T1 sequence: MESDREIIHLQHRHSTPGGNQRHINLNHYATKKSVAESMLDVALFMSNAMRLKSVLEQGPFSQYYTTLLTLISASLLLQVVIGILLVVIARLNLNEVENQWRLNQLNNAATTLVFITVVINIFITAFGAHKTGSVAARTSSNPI

[2] = target: T2, Ninj2, expressed in HEK293T cells (UniProt Q9JL89); assay: co-IP; HEK293T cells transfected with plasmid for 48 h, lysed, anti-HA or FLAG antibodies overnight at 4 °C, Protein A Magnetic Beads 2 h at 4 °C
T2 sequence: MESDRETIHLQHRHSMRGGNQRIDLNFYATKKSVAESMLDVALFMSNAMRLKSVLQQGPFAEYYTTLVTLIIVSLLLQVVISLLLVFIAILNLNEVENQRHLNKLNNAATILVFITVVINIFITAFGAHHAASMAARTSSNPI

[3] = target: ITGB1, overexpressed in S16 cells (UniProt P09055); assay: co-IP; S16 cells transduced with control/Itgb1-overexpressing vector alone or with control/Ninj2-overexpressing vector; endogenous laminin detected

binding [1]: binds
Molecule: ITGB1 in rat Schwann cells (from UniProt P49134 21-799) (receptor)

binding [2]: binds
Molecule: ITGB1, expressed in HEK293T cells (from UniProt P09055 21-798) (receptor)

binding [3]: binds
B1: Nerve injury-induced protein 2 (Ninj2), FLAG-tagged, overexpressed in S16 cells (protein, UniProt Q9JL89 1-143)
chain: T2 sequence
